PubChem BioAssay AID1259308 – NCATS, 2017
In all, the deposit lists about 59,000 reagents; this is a random part of them. About 1,510 of all reagents (2.6%) were called active. 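Calls use total luciferase alone and ignore viability, so some active siRNAs may act by altering cell number.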 Unmarked entries are inactive. The numbers tell different reagents against one gene apart. Not all columns of the deposit are shown.

- Screen: 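Knock-downs that increase output of a recombinant reporter protein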 (primary screen)
- Cell system: human HEK293 embryonic kidney cells stably expressing firefly luciferase (HEK-CMV-Luc2-Hygro)
- Knock-down reagent: single siRNA against human genes, 0.8 pmol siRNA per well
- Timing: 72 h
- Detection: 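Luciferase light (ONE-Glo) measured on one replicate plate set and viability (CellTiter-Glo) on the other, scaled to a negative control siRNA, with robust z-scores and luciferase per cell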
- Scale: total luciferase, z-score: higher = more reporter protein produced
- Active means: 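An siRNA counts as active if its total luciferase robust z-score exceeds 3; genes with two or more such siRNAs out of three were retested with fresh siRNAs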
- Meaning of the calls: active = raised luciferase; inactive = no rise

{"Target gene": "RAB27B (GeneID 5874)", "siRNA no.": 1, "total luciferase, z-score": -0.743}
{"Target gene": "RAB27B (GeneID 5874)", "siRNA no.": 2, "total luciferase, z-score": 1.72}
{"Target gene": "RAB27B (GeneID 5874)", "siRNA no.": 3, "total luciferase, z-score": 0.581}
{"Target gene": "KDM7A (GeneID 80853)", "siRNA no.": 1, "total luciferase, z-score": 0.195}
{"Target gene": "KDM7A (GeneID 80853)", "siRNA no.": 2, "total luciferase, z-score": -1.99}
{"Target gene": "KDM7A (GeneID 80853)", "siRNA no.": 3, "total luciferase, z-score": 1.8}
{"Target gene": "ATXN7 (GeneID 6314)", "siRNA no.": 1, "total luciferase, z-score": 0.423}
{"Target gene": "ATXN7 (GeneID 6314)", "siRNA no.": 2, "total luciferase, z-score": -0.644}
{"Target gene": "ATXN7 (GeneID 6314)", "siRNA no.": 3, "total luciferase, z-score": -0.704}
{"Target gene": "LINC02906 (GeneID 389676)", "siRNA no.": 1, "total luciferase, z-score": 0.593}
{"Target gene": "LINC02906 (GeneID 389676)", "siRNA no.": 2, "total luciferase, z-score": 0.482}
{"Target gene": "LINC02906 (GeneID 389676)", "siRNA no.": 3, "total luciferase, z-score": 1.88}
{"Target gene": "CYB5A (GeneID 1528)", "siRNA no.": 1, "total luciferase, z-score": 1.75}
{"Target gene": "CYB5A (GeneID 1528)", "siRNA no.": 2, "total luciferase, z-score": 1.39}
{"Target gene": "CYB5A (GeneID 1528)", "siRNA no.": 3, "total luciferase, z-score": -0.245}
{"Target gene": "CFAP100 (GeneID 348807)", "siRNA no.": 1, "total luciferase, z-score": 2.75}
{"Target gene": "CFAP100 (GeneID 348807)", "siRNA no.": 2, "total luciferase, z-score": 2.41}
{"Target gene": "CFAP100 (GeneID 348807)", "siRNA no.": 3, "total luciferase, z-score": -0.689}
{"Target gene": "CSTF2T (GeneID 23283)", "siRNA no.": 1, "total luciferase, z-score": 1.49}
{"Target gene": "CSTF2T (GeneID 23283)", "siRNA no.": 2, "total luciferase, z-score": -0.803}
{"Target gene": "CSTF2T (GeneID 23283)", "siRNA no.": 3, "total luciferase, z-score": 2.89}

No new results follow: an excerpt of the list.
{"Target gene": "CYB5A (GeneID 1528)", "siRNA no.": 1, "total luciferase, z-score": 1.75}
{"Target gene": "CYB5A (GeneID 1528)", "siRNA no.": 2, "total luciferase, z-score": 1.39}
{"Target gene": "CYB5A (GeneID 1528)", "siRNA no.": 3, "total luciferase, z-score": -0.245}
{"Target gene": "CFAP100 (GeneID 348807)", "siRNA no.": 1, "total luciferase, z-score": 2.75}
{"Target gene": "CFAP100 (GeneID 348807)", "siRNA no.": 2, "total luciferase, z-score": 2.41}

Continued:
{"Target gene": "ACR (GeneID 49)", "siRNA no.": 1, "total luciferase, z-score": 0.0608}
{"Target gene": "ACR (GeneID 49)", "siRNA no.": 2, "total luciferase, z-score": 0.483}
{"Target gene": "ACR (GeneID 49)", "siRNA no.": 3, "total luciferase, z-score": 0.508}
{"Target gene": "PCDH12 (GeneID 51294)", "siRNA no.": 1, "total luciferase, z-score": 0.132}
{"Target gene": "PCDH12 (GeneID 51294)", "siRNA no.": 2, "total luciferase, z-score": 2.93}
{"Target gene": "PCDH12 (GeneID 51294)", "siRNA no.": 3, "total luciferase, z-score": 0.145}
{"Target gene": "SNX32 (GeneID 254122)", "siRNA no.": 1, "total luciferase, z-score": 0.743}
{"Target gene": "SNX32 (GeneID 254122)", "siRNA no.": 2, "total luciferase, z-score": 0.471}
{"Target gene": "SNX32 (GeneID 254122)", "siRNA no.": 3, "total luciferase, z-score": -0.422}
{"Target gene": "PUS7 (GeneID 54517)", "siRNA no.": 1, "total luciferase, z-score": 2.01}
{"Target gene": "PUS7 (GeneID 54517)", "siRNA no.": 2, "total luciferase, z-score": 0.934}
{"Target gene": "PUS7 (GeneID 54517)", "siRNA no.": 3, "total luciferase, z-score": 0.329}
